Experimental data taken from patent publication US20260325473A1, “N-Beta-Hydroxybutyryl-Amino Acids and Related Compositions and Methods” (The Board of Trustees of the Leland Stanford Junior …, priority 2023, published 2026).
Where a chain is given by its changes, count along the chain named. For part of these data: Not every detail of the peptide structures is certain; ends, links or a residue may be inferred. For at least one compound, name, drawing or mass did not settle the structure. Blank lines part the entries; values can stand above or below the molecule they belong to. Residues, ends and D or L forms follow the SMILES beside them.

Experiments:
CNDP2 [1] = target: T1, CNDP2 (Mus musculus, UniProt Q9D1A2); experiment: In vitro synthase (condensation) activity, lysates of CNDP2-transfected HEK293T cells; assay type: biochemical; parameters: expressed in transfected cells; host or cells: HEK293T (lysate); settings: role: substrate
T1 sequence (Q9D1A2 1-475): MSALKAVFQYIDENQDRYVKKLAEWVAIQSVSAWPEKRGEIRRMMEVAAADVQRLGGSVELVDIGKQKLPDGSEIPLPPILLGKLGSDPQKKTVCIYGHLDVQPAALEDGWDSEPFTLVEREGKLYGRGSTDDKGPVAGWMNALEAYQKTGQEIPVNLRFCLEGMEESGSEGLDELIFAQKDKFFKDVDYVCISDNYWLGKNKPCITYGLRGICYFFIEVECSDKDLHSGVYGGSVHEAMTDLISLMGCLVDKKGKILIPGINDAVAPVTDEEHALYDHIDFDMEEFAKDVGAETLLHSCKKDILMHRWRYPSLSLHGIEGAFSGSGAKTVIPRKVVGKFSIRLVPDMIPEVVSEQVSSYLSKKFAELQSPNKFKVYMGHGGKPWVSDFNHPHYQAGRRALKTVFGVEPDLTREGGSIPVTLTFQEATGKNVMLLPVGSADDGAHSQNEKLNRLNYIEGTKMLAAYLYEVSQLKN
Procedure: In vitro enzyme activity assays. HEK293T cells were transfected with GFP, CNDP2 or CNDP2-E166A using PolyFect (Qiagen 301105) according to the manufacturer's instructions. The medium was changed one day post-transfection. After an additional 24 h, the cells were harvested in PBS, lysed by sonication and centrifuged (10 min at 15,000 rpm) to remove debris. Supernatant was collected and protein concentrations were adjusted. The in vitro reactions were conducted in Eppendorf tubes with 100 μL of 1 mg/mL protein and 20 mM substrates for keto amino acid synthase activity assays and. Reactions were incubated for 1 h at 37° C. and 20 μl of 1 M HCl were added to acidify the medium and to protonate keto amino acids. Reactions were vortexed and 400 μL of ethyl acetate were added to each reaction. Reactions were vortexed for 30 s to extract keto amino acids into the organic layer and centrifuged at 4° C. for 10 min at 15,000 r.p.m. A total of 300 μl from the top layer was transferred to a new Eppendorf tube and dried down under a stream of nitrogen. The residue was re-suspended in 150 μl of an 2:1:1 mixture of acetonitrile: methanol: water. The mixture was centrifuged at 4° C. for 10 min at 15,000 r.p.m. and the supernatant was transferred to a LC-MS vial.

CNDP2-E166A = target: T2, CNDP2-E166A (Mus musculus, UniProt Q9D1A2, E166A); experiment: In vitro synthase activity, lysates of CNDP2-E166A-transfected HEK293T cells; assay type: biochemical; settings: role: substrate; BHB 20 mM with phenylalanine 20 mM
T2 sequence (Q9D1A2 1-475 E166A): T1 sequence (Q9D1A2 1-475) with E166A

DIO mice = experiment: Chronic administration in DIO mice: body weight and food intake; assay type: in vivo, mouse; settings: 9 days; for food intake and body weight, related metabolites and dipeptides: 50 mg/kg IP
Procedure: General animal information. Animal experiments were performed according to procedure approved by the Stanford University Administrative Panel on Laboratory Animal Care (APLAC). Mice were maintained in 12-hr light-dark cycles at 22° C. and ~50% relative humidity and fed a standard irradiated rodent chow diet. Where indicated, high-fat diet (D12492, Research Diets 60% kcal from fat) and ketogenic diet (D06040601, Research Diets, 80% kcal fat/15% kcal protein/5% kcal carbohydrate) was used. Male C57BL/6J (stock no. 000664) and male C57BL/6J DIO mice (stock no. 380050) were purchased from Jackson Laboratory. Male C57BL/6NCrl (stock no. 027) mice were purchased from Charles River Laboratory. Whole body CNDP2-KO mice (catalog number, C57BL/6NCrl-Cndp2em1 (IMPC) Mbp/Mmucd, RRID: MMRRC_043492-UCD) were obtained from the Mutant Mouse Regional Resource Center, a NCRR-NIH funded strain repository. For in vivo injection of mice with metabolites, compounds were dissolved in 18:1:1 (by volume) of saline/Kolliphor EL (Sigma Aldrich)/DMSO. Compounds were administered to mice daily via intraperitoneal injections at 5 μl/g body weight at the indicated doses. For all injection experiments, mice were mock injected with the vehicle for 3-5 days until body weights have stabilized. Sample sizes were determined on the basis of previous experiments using similar methodologies. For metabolite administration experiments, mice were randomly assigned to treatment groups. Experimenters were not blinded to groups.

humans = settings: oral, high doses, Stubbs et al. 2018; cited from earlier work
obese mice = settings: Deemer et al. 2020; cited from earlier work
CNDP2 [2] = target: T1, CNDP2; experiment: In vitro synthase (condensation) activity, lysates of CNDP2-transfected HEK293T cells; assay type: biochemical; parameters: expressed in transfected cells; host or cells: HEK293T (lysate); settings: role: substrate; organic acids 1 mM with 10 mM phenylalanine

Compound: CC(C)C[C@H](NC(=O)[C@@H](N)CC(C)C)C(=O)O [Leu-Leu, reference compound]
food intake and body weight, related metabolites and dipeptides (DIO mice): failed to reduce food intake or body weight

Compound: N[C@@H](Cc1ccccc1)C(=O)N[C@@H](Cc1ccccc1)C(=O)O [Phe-Phe, reference compound] (H-Phe-Phe-OH)
food intake and body weight, related metabolites and dipeptides (DIO mice): failed to reduce food intake or body weight

Second part, led by results:

2-HB concentrations at which production was observed (CNDP2 [1]; with phenylalanine): ≥ 10 mM
CNDP2-dependent condensation activity with C4-hydroxycarboxylic acid isomers (CNDP2 [1]; with phenylalanine): Modest
rate of 2-HB-Phe production relative to BHB-Phe (CNDP2 [1]; with phenylalanine): < 50%
Compound: CCC(O)C(=O)O (stereo not drawn) [2-HB, 2-hydroxybutyrate]

phenylalanine BHB-ylation activity vs GFP-transfected lysates (CNDP2 [1]; BHB 20 mM with phenylalanine 20 mM, 1 h, 37° C): > 140 fold
CNDP2-dependent condensation activity with C4-hydroxycarboxylic acid isomers (CNDP2 [1]; with phenylalanine): preferred substrate for CNDP2
Compound: CC(O)CC(=O)O (stereo not drawn) [BHB, beta-hydroxybutyrate]
synthetase activity of CNDP2-E166A mutant (CNDP2-E166A): completely abolished the synthetase activity
body weight and food intake, conjugate vs components (DIO mice; 50 mg/kg/day IP, BHB or phenylalanine at the same doses): without effect
appetite (humans): acutely suppresses appetite in humans
body weight (obese mice): reduces body weight in obese mice

CNDP2 activity towards organic acid substrates (CNDP2 [2]): unable to accept
Compound: CCCCCCCC(=O)O [octanoate]
